Three compounds from publication PMC10815436, “Toward New AQP4 Inhibitors: ORI-TRN-002” (International Journal of Molecular Sciences, 2024) can be followed below.

The structures appear in SMILES notation.

This series has as its system human alpha acid glycoprotein. Briefly: Alpha acid glycoprotein affinity (BRAINstorm affinity chromatography). Format: binding.

For `O=C(Nc1cc(C(F)(F)F)cc(C(F)(F)F)c1)c1cc(Cl)ccc1O` [AER-270, N-[3,5-bis (trifluoromethyl)phenyl]-5-chloro-2-hydroxybenzamide], the “logKaAGP (log10 of human alpha acid glycoprotein affinity constant)” value (shortened to “logKaAGP”) stood at 6.94. Regarding `O=c1[nH]c(-c2cccnc2)nc2[nH]ncc12` [ORI-TRN-002, 6-(pyridin-3-yl)-1H-pyrazolo[3,4-d]pyrimidin-4(5H)-one], the “logKaAGP” value was 1.88. On to `O=C(Nc1nncs1)c1cccnc1` [TGN-020, 2-(nicotinamide)-1,3,4-thiadiazole], for which the “logKaAGP” value came out at 1.18.
